Experimental data from publication PMC12345631.
Results are given in words; binding and its absence hold for the method and conditions named. In cells and extracts the contact can be indirect. Here binding means that the protein was enriched with, or labelled near, the bait; the list need not be complete. Where a sequence is shown, tags or fusion partners need not be part of it.

The chains behind the UniProt entries cited, without tags or fusion partners.
UniProt P53297: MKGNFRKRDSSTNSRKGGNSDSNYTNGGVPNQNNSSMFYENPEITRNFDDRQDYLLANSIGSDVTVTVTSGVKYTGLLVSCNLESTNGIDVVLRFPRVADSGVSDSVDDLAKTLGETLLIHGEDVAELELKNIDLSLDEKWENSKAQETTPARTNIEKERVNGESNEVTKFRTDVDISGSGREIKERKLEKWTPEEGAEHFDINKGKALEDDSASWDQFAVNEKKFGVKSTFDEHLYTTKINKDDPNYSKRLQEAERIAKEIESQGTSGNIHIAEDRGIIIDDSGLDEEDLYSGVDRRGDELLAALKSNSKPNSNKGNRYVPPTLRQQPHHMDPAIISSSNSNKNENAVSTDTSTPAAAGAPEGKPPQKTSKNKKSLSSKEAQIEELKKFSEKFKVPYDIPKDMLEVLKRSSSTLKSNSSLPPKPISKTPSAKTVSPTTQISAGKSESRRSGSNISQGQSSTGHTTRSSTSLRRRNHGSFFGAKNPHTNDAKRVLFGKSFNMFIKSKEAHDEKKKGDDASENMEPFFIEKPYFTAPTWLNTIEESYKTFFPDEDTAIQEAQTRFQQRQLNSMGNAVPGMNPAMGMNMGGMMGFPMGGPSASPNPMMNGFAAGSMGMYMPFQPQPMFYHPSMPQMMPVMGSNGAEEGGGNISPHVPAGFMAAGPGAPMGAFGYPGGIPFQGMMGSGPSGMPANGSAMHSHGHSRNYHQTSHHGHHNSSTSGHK

T1: Mkt1-Flag (Mkt1-G30/R453 allele, the CEN.PK wild type) (S. cerevisiae) (UniProt P40850)
T1 sequence: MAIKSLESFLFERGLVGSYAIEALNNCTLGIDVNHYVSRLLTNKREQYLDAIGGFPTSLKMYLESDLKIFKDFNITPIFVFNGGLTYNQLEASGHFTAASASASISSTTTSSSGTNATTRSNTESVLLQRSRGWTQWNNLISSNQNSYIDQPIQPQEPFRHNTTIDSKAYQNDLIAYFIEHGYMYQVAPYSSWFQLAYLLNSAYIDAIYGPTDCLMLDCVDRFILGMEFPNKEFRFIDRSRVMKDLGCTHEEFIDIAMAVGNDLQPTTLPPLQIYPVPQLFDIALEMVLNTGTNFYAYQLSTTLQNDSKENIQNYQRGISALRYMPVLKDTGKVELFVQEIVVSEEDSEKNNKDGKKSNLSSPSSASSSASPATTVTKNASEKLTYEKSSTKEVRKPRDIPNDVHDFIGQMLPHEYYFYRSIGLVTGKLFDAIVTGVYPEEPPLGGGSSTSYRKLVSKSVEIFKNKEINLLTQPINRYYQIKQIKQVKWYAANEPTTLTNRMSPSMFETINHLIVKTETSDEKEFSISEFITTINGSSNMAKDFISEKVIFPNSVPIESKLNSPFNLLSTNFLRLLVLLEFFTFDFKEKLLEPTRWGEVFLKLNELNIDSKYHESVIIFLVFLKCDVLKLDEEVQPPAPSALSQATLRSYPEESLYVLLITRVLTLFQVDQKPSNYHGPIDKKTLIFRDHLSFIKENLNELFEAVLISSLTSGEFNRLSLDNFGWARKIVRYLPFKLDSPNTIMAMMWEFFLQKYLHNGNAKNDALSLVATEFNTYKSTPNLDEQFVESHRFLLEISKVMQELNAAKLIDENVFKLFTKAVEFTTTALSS

B1: Maintenance of K2 killer toxin 1 (Mkt1), untagged (protein, UniProt P40850 1-830)
chain: T1 sequence

Legend:
[1] = target: T1, Mkt1-Flag (Mkt1-G30/R453 allele, the CEN.PK wild type) (S. cerevisiae); test: affinity purification with mass spectrometry; anti-Flag IP from lysates of Mkt1-Flag and Pbp1-Flag yeast grown in YPD (log phase) and 3 h after switch to YPL; whole IP samples, and in a second experiment bands cut from a silver-stained gel (YPL, log phase)
[2] = target: Pbp1-Flag (S. cerevisiae) (UniProt P53297); test: as above

Molecule | binding [1] | binding [2]
Poly(A) binding protein-binding protein 1 (Pbp1), untagged (from UniProt P53297 1-722) | binds | 
B1 |  | binds
